{
  "sequences": {"note": "Protein sequences, listed by entry. Tags and fused reporters are not part of them. Lines headed by an entry give the natural chain unless they say otherwise; changes in a name come on top.", "UniProt P61224": "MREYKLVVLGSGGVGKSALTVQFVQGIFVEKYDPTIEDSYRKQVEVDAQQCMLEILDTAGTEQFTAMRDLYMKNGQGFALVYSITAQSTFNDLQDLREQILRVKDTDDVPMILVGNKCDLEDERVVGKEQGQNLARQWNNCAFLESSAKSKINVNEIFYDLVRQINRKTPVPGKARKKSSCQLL", "UniProt P61586, whole entry": "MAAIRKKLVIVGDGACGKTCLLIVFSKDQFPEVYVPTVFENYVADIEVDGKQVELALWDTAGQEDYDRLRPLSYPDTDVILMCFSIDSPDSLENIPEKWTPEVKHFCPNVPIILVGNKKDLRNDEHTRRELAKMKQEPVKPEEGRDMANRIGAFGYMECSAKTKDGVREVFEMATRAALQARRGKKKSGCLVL", "UniProt P58557": "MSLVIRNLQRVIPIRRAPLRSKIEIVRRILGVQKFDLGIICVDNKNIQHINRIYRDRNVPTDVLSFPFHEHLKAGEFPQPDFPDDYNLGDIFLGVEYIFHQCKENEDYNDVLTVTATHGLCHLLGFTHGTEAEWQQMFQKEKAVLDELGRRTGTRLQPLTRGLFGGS", "UniProt P55060": "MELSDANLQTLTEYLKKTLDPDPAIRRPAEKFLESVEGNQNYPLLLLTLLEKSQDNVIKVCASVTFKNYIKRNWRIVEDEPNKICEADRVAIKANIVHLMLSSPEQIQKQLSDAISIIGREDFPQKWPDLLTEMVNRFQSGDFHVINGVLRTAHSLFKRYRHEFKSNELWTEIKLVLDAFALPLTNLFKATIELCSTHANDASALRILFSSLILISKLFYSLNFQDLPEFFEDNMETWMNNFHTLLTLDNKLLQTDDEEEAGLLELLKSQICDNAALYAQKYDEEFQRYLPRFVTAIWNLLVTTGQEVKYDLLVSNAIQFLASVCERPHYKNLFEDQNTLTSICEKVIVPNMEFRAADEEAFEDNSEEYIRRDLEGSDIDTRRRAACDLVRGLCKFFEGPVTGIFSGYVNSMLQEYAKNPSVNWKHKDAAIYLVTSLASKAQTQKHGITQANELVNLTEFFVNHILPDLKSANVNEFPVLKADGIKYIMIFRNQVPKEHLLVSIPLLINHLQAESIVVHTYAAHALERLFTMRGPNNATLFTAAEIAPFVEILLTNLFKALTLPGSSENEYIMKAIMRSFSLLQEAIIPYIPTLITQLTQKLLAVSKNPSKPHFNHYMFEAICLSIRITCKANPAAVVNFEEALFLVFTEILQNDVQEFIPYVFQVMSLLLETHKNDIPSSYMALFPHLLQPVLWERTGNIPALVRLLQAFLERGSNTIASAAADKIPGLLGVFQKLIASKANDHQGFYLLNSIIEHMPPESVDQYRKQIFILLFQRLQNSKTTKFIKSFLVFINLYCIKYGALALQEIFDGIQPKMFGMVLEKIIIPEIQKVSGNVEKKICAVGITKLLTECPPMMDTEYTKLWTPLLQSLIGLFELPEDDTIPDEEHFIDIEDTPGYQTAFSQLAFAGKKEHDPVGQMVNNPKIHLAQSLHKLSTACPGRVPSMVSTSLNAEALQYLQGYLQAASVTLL", "UniProt P63104": "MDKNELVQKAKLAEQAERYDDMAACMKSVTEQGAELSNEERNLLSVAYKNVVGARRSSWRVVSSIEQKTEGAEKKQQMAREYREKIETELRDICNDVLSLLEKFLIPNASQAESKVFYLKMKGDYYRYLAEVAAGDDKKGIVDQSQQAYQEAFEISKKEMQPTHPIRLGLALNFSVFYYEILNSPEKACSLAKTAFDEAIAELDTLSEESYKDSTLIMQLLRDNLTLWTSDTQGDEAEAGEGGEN"},
  "source": "the supplement of paper PMC12819154",
  "about": "“High-throughput peptide-centric local stability assay extends protein–ligand identification to membrane proteins, tissues and bacteria” (Nature Structural & Molecular Biology, 2025)",
  "note": "The list shows a part of the results. Small differences around the control level are noise.",
  "data": [
    {"compound": "Cc1nc(Nc2ncc(C(=O)Nc3c(C)cccc3Cl)s2)cc(N2CCN(CCO)CC2)n1 [dasatinib]", "test": "log2 fold change of tryptic peptide abundance, ligand vs vehicle (limited proteolysis) (log2 ratio); higher = more trypsin-susceptible (destabilized)", "settings": "ligand concentration: 5 uM; sample: K562 cleared lysate", "values": [
      {"target": "UniProt P62805 (peptide sequence: ISGLIYEETR, peptide start residue: 47)", "log2 fold change": 0.0417},
      {"target": "UniProt P62753 (peptide sequence: MKLNISFPATGCQKLIEVDDER, peptide start residue: 1)", "log2 fold change": 0.399},
      {"target": "UniProt P61224 (peptide sequence: VKDTDDVPMILVGNK, peptide start residue: 103)", "log2 fold change": -0.0124},
      {"target": "UniProt P62266 (peptide sequence: VQLIKNGK, peptide start residue: 72)", "log2 fold change": -0.212},
      {"target": "RHOA (peptide sequence: IGAFGYMECSAK, peptide start residue: 151) (UniProt P61586)", "log2 fold change": -0.124},
      {"target": "YBEY (peptide sequence: NIQHINR, peptide start residue: 46) (UniProt P58557)", "log2 fold change": -0.26},
      {"target": "CSE1L (peptide sequence: ANIVHLMLSSPEQIQK, peptide start residue: 94) (UniProt P55060)", "log2 fold change": -0.198},
      {"target": "YWHAZ (peptide sequence: NLLSVAYKNVVGARR, peptide start residue: 42) (UniProt P63104)", "log2 fold change": 0.191}
    ]}
  ]
}
